Measurements as given in patent US20020151708A1.
These are yes or no findings as the source states them, for the method shown. In cells and extracts the contact can be indirect. Some entries that bind do so weakly or less than the wild type. Sequences can lack the tags named with a protein.

Sequences of proteins named here, by UniProt entry; tags and fusion partners are left off. Residues count along the entry.
UniProt Q27975, residues 2-641: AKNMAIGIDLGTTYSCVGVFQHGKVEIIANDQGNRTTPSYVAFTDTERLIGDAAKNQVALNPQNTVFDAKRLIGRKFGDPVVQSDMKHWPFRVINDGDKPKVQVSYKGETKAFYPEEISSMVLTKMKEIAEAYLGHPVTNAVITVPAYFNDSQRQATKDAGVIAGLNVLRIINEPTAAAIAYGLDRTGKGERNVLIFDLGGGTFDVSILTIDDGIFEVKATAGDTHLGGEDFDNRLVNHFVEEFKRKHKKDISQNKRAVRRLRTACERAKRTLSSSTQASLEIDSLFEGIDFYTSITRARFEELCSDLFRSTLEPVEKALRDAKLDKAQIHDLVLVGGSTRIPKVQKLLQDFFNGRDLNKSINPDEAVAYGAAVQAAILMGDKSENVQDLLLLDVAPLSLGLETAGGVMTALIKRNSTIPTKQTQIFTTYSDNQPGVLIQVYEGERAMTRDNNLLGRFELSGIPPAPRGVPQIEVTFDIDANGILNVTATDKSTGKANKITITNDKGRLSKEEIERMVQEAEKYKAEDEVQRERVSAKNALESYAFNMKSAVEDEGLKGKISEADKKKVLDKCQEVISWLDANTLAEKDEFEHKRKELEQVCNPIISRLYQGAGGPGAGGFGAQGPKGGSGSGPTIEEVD
UniProt P0DMV8, residues 1-351: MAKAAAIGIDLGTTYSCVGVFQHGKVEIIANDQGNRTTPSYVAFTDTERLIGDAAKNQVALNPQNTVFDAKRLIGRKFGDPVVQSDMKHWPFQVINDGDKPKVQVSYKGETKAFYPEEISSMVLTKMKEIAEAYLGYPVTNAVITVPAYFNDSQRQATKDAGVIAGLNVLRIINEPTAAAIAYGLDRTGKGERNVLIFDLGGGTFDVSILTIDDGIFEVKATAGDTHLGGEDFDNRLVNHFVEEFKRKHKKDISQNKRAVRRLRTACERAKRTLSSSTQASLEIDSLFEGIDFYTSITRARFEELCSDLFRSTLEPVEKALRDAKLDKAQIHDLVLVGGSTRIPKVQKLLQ

Experiments:
[1] = molecular target: Hsp70 from a crude homogenate of bovine heart (bovine) (UniProt Q27975); assay: pull-down from bovine heart homogenate on Ni2+ resin loaded with His-tagged HspBP1
[2] = molecular target: Hsp70 from a crude homogenate of bovine heart (bovine) (UniProt Q27975); assay: pull-down from bovine heart homogenate on Ni2+ resin loaded with His-tagged HspBP1, Western blot and Coomassie staining
[3] = molecular target: ATP-binding fragment of human Hsp70 (amino acids 1-351), expressed in bacteria without His-tag (human) (UniProt P0DMV8); assay: Ni2+ affinity resin pull-down, Western blot with anti-6XHis and anti-Hsp70

Measured: binding

B1: His-tagged HspBP1 (human heat-shock protein-binding protein 1, expressed in bacteria from pET28a) (protein, not shown: small tags and cut ends)
chain: MSDEGSRGSRLPLALPPASQGCSSGGGGGGSSAGGSGNSRPPRNLQGLLQMAITAGSEEPDPPPEPMSEERRQWLQEAMSAAFRGQREEVEQMKSCLRVLSQPMPPTAGEAEQAADQQEREGALELLADLCENMDNAADFCQLSGMHLLVGRYLEAGAAGLRWRAAQLIGTCSQNVAAIQEQVLGLGALRKLLRLLDRDACDTVRVKALFAISCLVREQEAGLLQFLRLDGFSVLMRAMQQQVQKLKVKSAFLLQNLLVGHPEHKGTLCSMGMVQQLVALVRTEHSPFHEHVLGALCSLVTDFPQGVRECREPELGLEELLRHRCQLLQQHEEYQEELEFCEKLLQTCFSSPADDSMDR
binds: all assays above
